# Values from PubChem BioAssay AID686938 (Drosophila RNAi Screening Center, 2013)
# Aim: 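Looking for CRAC channel components and the factors controlling them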 (primary screen)
# Cells: Drosophila S2R+ cells
# Reagent: long dsRNA against Drosophila genes, about 0.25 µg dsRNA per well, roughly 10,000 cells
# Duration: 5 days of knock-down before the calcium assay
# Treatment: thapsigargin (SERCA pump blocker) to empty calcium stores; entry signal taken 4 min after adding it
# Detection: 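Duplicate raw fluo-4 intensities per well from a plate reader, at rest and four minutes after thapsigargin emptied calcium stores; entry-to-rest ratio filled for only some wells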
# Reading the numbers: calcium entry signal: higher = stronger calcium signal after store depletion; entry to resting ratio: higher = more calcium entry relative to resting level; resting calcium signal: higher = higher resting calcium signal
# Call rule: 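Hit if the duplicate-averaged plate z-score for entry over resting signal is under −3; wells with weak total dye signal (Fmax z < −2) or more than 5 off-targets removed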
# Calls: active = strongly reduced calcium entry; inactive = no strong reduction
# The deposit covers about 23,000 reagents; below is a random part of those that have a named target and a result. Of all reagents, 75 (0.33%) got an active call. 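Raw plate signals without normalisation; calls rest on plate z-scores that were not deposited; ratio present for only 364 wells.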 The record does not give: the dose of the treatment.
Target gene,dsRNA,"calcium entry signal, replicate 1 (fluorescence units)","calcium entry signal, replicate 2 (fluorescence units)",entry to resting ratio,"resting calcium signal, replicate 1 (fluorescence units)","resting calcium signal, replicate 2 (fluorescence units)",Outcome
CG13793,DRSC02297,3.87e7,4.43e7,,1.52e7,1.91e7,inactive
CG3592,DRSC18315,3.49e7,6.19e7,2,1.74e7,2.48e7,inactive
Tehao,DRSC03449,3.36e7,2.23e7,,1.54e7,1.02e7,inactive
CG32945,DRSC12014,3.92e7,3.32e7,,2.15e7,1.65e7,inactive
robo1 (roundabout 1),DRSC04712,3.67e7,4.64e7,,1.93e7,2.23e7,inactive
robl22E,DRSC00289,4.37e7,4.31e7,,2.06e7,1.92e7,inactive
Prosbeta5 (Proteasome beta5 subunit),DRSC07517,2.18e7,3.60e7,,1.55e7,1.64e7,inactive
lncRNA:CR42735 (retired record),DRSC00921,4.23e7,4.34e7,,2.04e7,2.01e7,inactive
Dhit (Double hit),DRSC07411,3.11e7,3.47e7,,1.53e7,1.61e7,inactive
CG6833,DRSC10721,2.27e7,3.28e7,,1.21e7,2.16e7,inactive
CG7387,DRSC10833,4.77e7,4.37e7,,2.98e7,1.69e7,inactive
CG14780,DRSC18566,4.59e7,4.43e7,2.1,2.23e7,1.86e7,inactive
Papst2 (PAPS transporter 2),DRSC10924,2.99e7,4.14e7,,1.30e7,2.69e7,inactive
Taf7 (TBP-associated factor 7),DRSC15445,3.52e7,2.38e7,,1.74e7,1.27e7,inactive
Pa1 (PTIP associated 1),DRSC19422,2.78e7,4.33e7,,1.43e7,2.12e7,inactive
CG32260,DRSC08084,5.83e7,4.17e7,,2.92e7,1.99e7,inactive
CG17343,DRSC02606,4.12e7,5.02e7,,1.97e7,2.02e7,inactive
CG17343,DRSC22807,3.50e7,3.82e7,,1.69e7,1.90e7,inactive
CG15888,DRSC15125,2.50e7,3.85e7,,1.27e7,4.95e7,inactive
Ppn (Papilin),DRSC15328,3.35e7,4.58e7,,1.67e7,2.05e7,inactive
Gar1 (Gar1 ribonucleoprotein),DRSC04441,2.13e7,2.77e7,,1.29e7,1.46e7,inactive
E2f1 (E2F transcription factor 1),DRSC16655,1.71e7,2.47e7,,1.06e7,4.43e7,inactive
Not11 (CCR4-NOT transcription complex subunit 11),DRSC04204,2.92e7,3.74e7,,1.58e7,1.80e7,inactive
CG11384,DRSC18628,3.83e7,3.81e7,2.2,1.76e7,1.70e7,inactive

Quoted from the listing for reference:
Target gene,dsRNA,"calcium entry signal, replicate 1 (fluorescence units)","calcium entry signal, replicate 2 (fluorescence units)",entry to resting ratio,"resting calcium signal, replicate 1 (fluorescence units)","resting calcium signal, replicate 2 (fluorescence units)",Outcome
Taf7 (TBP-associated factor 7),DRSC15445,3.52e7,2.38e7,,1.74e7,1.27e7,inactive
Pa1 (PTIP associated 1),DRSC19422,2.78e7,4.33e7,,1.43e7,2.12e7,inactive
CG32260,DRSC08084,5.83e7,4.17e7,,2.92e7,1.99e7,inactive
